Publication PMC6662699
Results are given in words; binding and its absence hold for the method and conditions named. Binding seen in cells or lysates may run through a third protein. Some entries that bind do so weakly or less than the wild type. Tags and fused reporters may be left off the sequences shown.

Target: T1, Myc-Plk4 (UniProt O00444)
T1 sequence: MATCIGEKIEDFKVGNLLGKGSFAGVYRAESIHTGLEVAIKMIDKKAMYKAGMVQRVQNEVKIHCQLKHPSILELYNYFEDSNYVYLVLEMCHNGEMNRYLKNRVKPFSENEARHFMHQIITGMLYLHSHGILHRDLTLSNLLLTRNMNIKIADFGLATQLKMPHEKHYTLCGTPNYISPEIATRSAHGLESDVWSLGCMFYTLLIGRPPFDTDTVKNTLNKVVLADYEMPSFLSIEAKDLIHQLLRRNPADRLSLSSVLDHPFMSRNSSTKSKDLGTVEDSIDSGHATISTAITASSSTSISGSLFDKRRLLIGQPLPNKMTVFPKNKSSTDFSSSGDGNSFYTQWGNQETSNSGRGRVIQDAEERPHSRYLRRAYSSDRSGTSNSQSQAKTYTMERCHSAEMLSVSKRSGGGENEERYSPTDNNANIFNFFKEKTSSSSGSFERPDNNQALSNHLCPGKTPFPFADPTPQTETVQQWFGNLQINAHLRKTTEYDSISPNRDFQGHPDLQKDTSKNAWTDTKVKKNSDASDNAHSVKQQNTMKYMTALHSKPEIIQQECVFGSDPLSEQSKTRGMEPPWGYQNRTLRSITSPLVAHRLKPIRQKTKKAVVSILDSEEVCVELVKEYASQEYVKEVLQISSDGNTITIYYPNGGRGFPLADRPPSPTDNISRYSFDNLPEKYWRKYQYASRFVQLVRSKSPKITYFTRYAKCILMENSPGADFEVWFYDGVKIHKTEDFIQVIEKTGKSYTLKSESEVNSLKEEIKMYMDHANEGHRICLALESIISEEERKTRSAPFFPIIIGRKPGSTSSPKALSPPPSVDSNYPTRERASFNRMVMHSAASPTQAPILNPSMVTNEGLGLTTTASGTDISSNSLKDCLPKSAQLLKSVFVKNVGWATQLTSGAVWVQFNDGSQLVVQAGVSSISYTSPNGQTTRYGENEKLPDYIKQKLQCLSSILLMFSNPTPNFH
Test: co-IP; HEK293T cells co-expressing Myc-Plk4 and GFP-Cep131; Myc-magnetic beads, 2 h at 4 °C; TBSN buffer (50 mM Tris-HCl pH 8.0, 120 mM NaCl, 5 mM EGTA, 1.5 mM EDTA, 0.5% NP-40); immunoblotting (Fig. 3a)

binding: binds
B1: GFP-Cep131 (protein, UniProt Q9UPN4 1-1083)
chain: MKGTRAIGSVPERSPAGVDLSLTGLPPPVSRRPGSAATTKPIVRSVSVVTGSEQKRKVLEATGPGGSQAINNLRRSNSTTQVSQPRSGSPRPTEPTDFLMLFEGSPSGKKRPASLSTAPSEKGATWNVLDDQPRGFTLPSNARSSSALDSPAGPRRKECTVALAPNFTANNRSNKGAVGNCVTTMVHNRYTPSERAPPLKSSNQTAPSLNNIIKAATCEGSESSGFGKLPKNVSSATHSARNNTGGSTGLPRRKEVTEEEAERFIHQVNQATVTIQRWYRHQVQRRGAGAARLEHLLQAKREEQRQRSGEGTLLDLHQQKEAARRKAREEKARQARRAAIQELQQKRALRAQKASTAERGPPENPRETRVPGMRQPAQELSPTPGGTAHQALKANNTGGGLPAAGPGDRCLPTSDSSPEPQQPPEDRTQDVLAQDAAGDNLEMMAPSRGSAKSRGPLEELLHTLQLLEKEPDVLPRPRTHHRGRYAWASEVTTEDDASSLTADNLEKFGKLSAFPEPPEDGTLLSEAKLQSIMSFLDEMEKSGQDQLDSQQEGWVPEAGPGPLELGSEVSTSVMRLKLEVEEKKQAMLLLQRALAQQRDLTARRVKETEKALSRQLQRQREHYEATIQRHLAFIDQLIEDKKVLSEKCEAVVAELKQEDQRCTERVAQAQAQHELEIKKLKELMSATEKARREKWISEKTKKIKEVTVRGLEPEIQKLIARHKQEVRRLKSLHEAELLQSDERASQRCLRQAEELREQLEREKEALGQQERERARQRFQQHLEQEQWALQQQRQRLYSEVAEERERLGQQAARQRAELEELRQQLEESSSALTRALRAEFEKGREEQERRHQMELNTLKQQLELERQAWEAGRTRKEEAWLLNREQELREEIRKGRDKEIELVIHRLEADMALAKEESEKAAESRIKRLRDKYEAELSELEQSERKLQERCSELKGQLGEAEGENLRLQGLVRQKERALEDAQAVNEQLSSERSNLAQVIRQEFEDRLAASEEETRQAKAELATLQARQQLELEEVHRRVKTALARKEEAVSSLRTQHEAAVKRADHLEELLEQHRRPTPSTK
